# Data: paper doi:10.1101/794511
# By UniProt entry, the sequences of proteins in these tests, tags left out.
# UniProt P31316: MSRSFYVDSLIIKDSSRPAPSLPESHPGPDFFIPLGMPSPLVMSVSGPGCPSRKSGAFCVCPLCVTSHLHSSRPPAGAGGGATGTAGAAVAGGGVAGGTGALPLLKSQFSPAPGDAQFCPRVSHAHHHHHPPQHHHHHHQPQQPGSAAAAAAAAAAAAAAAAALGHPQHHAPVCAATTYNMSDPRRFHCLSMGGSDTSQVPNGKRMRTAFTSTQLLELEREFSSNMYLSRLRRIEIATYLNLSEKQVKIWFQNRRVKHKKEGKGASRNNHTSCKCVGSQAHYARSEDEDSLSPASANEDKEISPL
# UniProt P31315: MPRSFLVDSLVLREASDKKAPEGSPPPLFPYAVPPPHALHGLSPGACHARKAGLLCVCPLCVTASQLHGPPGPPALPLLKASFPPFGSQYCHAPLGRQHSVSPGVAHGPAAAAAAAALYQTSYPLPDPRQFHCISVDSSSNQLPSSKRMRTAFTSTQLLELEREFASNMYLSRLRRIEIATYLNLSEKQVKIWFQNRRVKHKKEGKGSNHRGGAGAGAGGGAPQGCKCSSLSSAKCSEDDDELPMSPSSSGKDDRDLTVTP
# Results are given in words; binding and its absence hold for the method and conditions named. For some assays here: Binding seen in cells or lysates may run through a third protein. Some results given as binding are weak or reduced against the parent protein; the word gives no strength.
# Tests used:
# [1] = target: Gsx2 (full-length), yeast two-hybrid bait in pGBKT7 (mouse) (UniProt P31316); assay: two-hybrid
# [2] = target: Gsx2, yeast three-hybrid bait (pBRIDGE MCS1) (mouse) (UniProt P31316); assay: yeast three-hybrid
# [3] = target: Gsx1, yeast two-hybrid bait in pGBKT7 (UniProt P31315); assay: two-hybrid
# [4] = target: Gsx2, endogenous in the E12.5 mouse telencephalon (mouse (endogenous in E12.5 telencephalon)) (UniProt P31316); assay: co-IP
# [5] = target: Gsx2, endogenous in the E12.5 mouse telencephalon (mouse (endogenous in E12.5 telencephalon)) (UniProt P31316); assay: proximity ligation
binding [1],Binder,further results
no binding,"SNDLNSMAGSPVSSYSSDEGSYDPLSPEEQELLDFTNWF (domain or fragment, UniProt Q02067 193-231) [Ascl1 C terminus (Ascl1^193-231), yeast two-hybrid prey]",–
binds,"Ascl1 bHLH domain (Ascl1^97-193), yeast two-hybrid prey (domain or fragment, UniProt Q02067 97-193) RLNFSGFGYSLPQQQPAAVARRNERERNRVKLVNLGFATLREHVPNGAANKKMSKVETLRSAVEYIRALQQLLDEHDAVSAAFQAGVLSPTISPNYS",–
no binding,"Ascl1 N-terminus (Ascl1^1-131), yeast two-hybrid prey (domain or fragment, UniProt Q02067 1-131) MESSGKMESGAGQQPQPPQPFLPPAACFFATAAAAAAAAAAAAQSAQQQQPQAPPQQAPQLSPVADSQPSGGGHKSAAKQVKRQRSSSPELMRCKRRLNFSGFGYSLPQQQPAAVARRNERERNRVKLVNL",–
binds,"Ascl1, yeast two-hybrid prey in pGADT7 (protein, UniProt Q02067 1-231) MESSGKMESGAGQQPQPPQPFLPPAACFFATAAAAAAAAAAAAQSAQQQQPQAPPQQAPQLSPVADSQPSGGGHKSAAKQVKRQRSSSPELMRCKRRLNFSGFGYSLPQQQPAAVARRNERERNRVKLVNLGFATLREHVPNGAANKKMSKVETLRSAVEYIRALQQLLDEHDAVSAAFQAGVLSPTISPNYSNDLNSMAGSPVSSYSSDEGSYDPLSPEEQELLDFTNWF",binding [2]: binds; binding [3]: no binding
–,"Ascl1, endogenous in the E12.5 mouse telencephalon (protein, UniProt Q02067 1-231) MESSGKMESGAGQQPQPPQPFLPPAACFFATAAAAAAAAAAAAQSAQQQQPQAPPQQAPQLSPVADSQPSGGGHKSAAKQVKRQRSSSPELMRCKRRLNFSGFGYSLPQQQPAAVARRNERERNRVKLVNLGFATLREHVPNGAANKKMSKVETLRSAVEYIRALQQLLDEHDAVSAAFQAGVLSPTISPNYSNDLNSMAGSPVSSYSSDEGSYDPLSPEEQELLDFTNWF",binding [4]: binds; binding [5]: binds
